Assay results reported in publication PMC10837206, “R-Spondin 2 governs Xenopus left-right body axis formation by establishing an FGF signaling gradient” (Nature Communications, 2024).
Results are given in words; binding and its absence hold for the method and conditions named. Binding calls can cover weak binding; strength is not graded here. Tags and fused reporters may be left off the sequences shown.

Target: T1, recombinant human FGFR4 Fc Chimera (human, UniProt P22455 22-369)
T1 construct: Fibroblast Growth Factor receptor 4 (FGFR4), human, extracellular domain; also called FGFR4^ECD; extracellular domain (ECD) of FGFR4; source: bought: R&D systems 685-FR and BioLegend 752502
T1 sequence (looked up): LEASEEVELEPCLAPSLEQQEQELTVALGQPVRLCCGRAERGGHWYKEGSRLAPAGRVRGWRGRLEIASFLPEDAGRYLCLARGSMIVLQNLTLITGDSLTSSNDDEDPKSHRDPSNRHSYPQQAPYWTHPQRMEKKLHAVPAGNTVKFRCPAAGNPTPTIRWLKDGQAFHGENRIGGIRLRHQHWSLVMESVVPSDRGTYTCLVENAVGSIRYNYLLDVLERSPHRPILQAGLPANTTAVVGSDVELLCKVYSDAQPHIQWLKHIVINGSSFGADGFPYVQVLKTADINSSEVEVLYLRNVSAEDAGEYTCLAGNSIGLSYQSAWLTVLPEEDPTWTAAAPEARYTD
Test: in vitro binding assay (solid phase, bound AP activity); 96-well plates coated with 2-4 ug ml^-1 Fc Chimera in bicarbonate coating buffer pH 9.6; 2 U ml^-1 RSPOs-AP overnight at 4 °C; AquaSpark AP substrate; only the target purified

human RSPO2 deletion mutant(s) lacking the FU1/2 domains, AP fusion (domain or fragment)
binding: binds
